Record: PubChem BioAssay AID1259326 (Drosophila RNAi Screening Center, 2017)
This is one part, drawn at random, of 573 reagents tested. 39 of them (6.8%) count as active. 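All actives have raised ATP, meaning more surviving cells; in these data active calls sit at averaged z-scores near 1.5 or above.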 The raw values are shown without normalisation. Not stated in the record: the amount of reagent.

- Test: 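Knock-downs that shift cellular ATP after a high zinc chloride dose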
- System: Drosophila S2R+ cells
- Reagents: long dsRNA against Drosophila genes
- Time to read-out: about 5 days (4 days of RNAi, then 1 day of zinc)
- Challenge: zinc chloride added to 15 mM final for one day
- Measurement: 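Cellular ATP measured by luciferase light as a viable-cell proxy, after 4 days of RNAi and 1 day in 15 mM zinc chloride; replicate z-scores averaged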
- Scale: averaged z-score: higher = more ATP than other wells, i.e. more surviving cells, after zinc; ATP luminescence: higher = more ATP, i.e. more surviving cells
- Active means: 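Active if the averaged z-score exceeds 1.5 or falls under -1.5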

| target | DRSC id | averaged z-score | ATP luminescence, replicate 1 | ATP luminescence, replicate 2 | call |
| --- | --- | --- | --- | --- | --- |
| Mpi | DRSC16417 | -0.0313 | 86290 | 1.01e5 | inactive |
| Mpi | DRSC41202 | -0.276 | 69464 | 68041 | inactive |
| Sec23 | DRSC12387 | 0.262 | 95601 | 84644 | inactive |
| Sec23 | DRSC31247 | 0.395 | 76496 | 86591 | inactive |
| Sec23 | DRSC31248 | -0.503 | 74404 | 51995 | inactive |
| CG8858 | DRSC07290 | -0.29 | 67252 | 88947 | inactive |
| CG8858 | DRSC41206 | -0.144 | 72328 | 68782 | inactive |
| SerRS | DRSC00496 | 0.382 | 89773 | 1.15e5 | inactive |
| SerRS | DRSC41173 | 0.5 | 82588 | 91252 | inactive |
| Rab3 | DRSC07523 | 0.348 | 1.01e5 | 88350 | inactive |
| Rab3 | DRSC35976 | -0.067 | 76957 | 70647 | inactive |
| Rab3 | DRSC41236 | -0.0654 | 65333 | 74043 | inactive |
| comt | DRSC25218 | -0.255 | 86102 | 75673 | inactive |
| comt | DRSC33298 | 0.0194 | 85499 | 72955 | inactive |
| comt | DRSC33299 | 0.0704 | 69344 | 75690 | inactive |
| Tudor-SN | DRSC08581 | 0.0966 | 77594 | 95331 | inactive |
| Tudor-SN | DRSC41253 | -0.303 | 65708 | 70682 | inactive |
| Tudor-SN | DRSC41254 | -0.118 | 69773 | 76385 | inactive |
| Atg18b | DRSC03108 | -0.407 | 87734 | 68263 | inactive |
| Atg18b | DRSC28594 | -0.0746 | 82156 | 72688 | inactive |
| Atg18b | DRSC41204 | -0.29 | 57871 | 76143 | inactive |
| Pgk | DRSC26595 | -0.6 | 87920 | 63016 | inactive |
| Pgk | DRSC34586 | 0.19 | 75896 | 75553 | inactive |
| Pgk | DRSC34587 | -0.131 | 80370 | 77645 | inactive |
| Atg3 | DRSC21758 | 0.615 | 1.11e5 | 91893 | inactive |
| Atg3 | DRSC29687 | -0.294 | 75295 | 72706 | inactive |
| Atg3 | DRSC41157 | -0.315 | 61558 | 73735 | inactive |
| pk | DRSC24979 | -0.823 | 74901 | 67372 | inactive |
| pk | DRSC34929 | -0.296 | 67914 | 80304 | inactive |
| pk | DRSC34930 | -0.533 | 61660 | 68693 | inactive |
| LeuRS | DRSC00581 | 1.54 | 1.36e5 | 81179 | active |
| LeuRS | DRSC32059 | 1.92 | 1.28e5 | 1.02e5 | active |
| LeuRS | DRSC32060 | 1.5 | 97767 | 95863 | inactive |
| Nedd4 | DRSC26365 | -0.0223 | 96086 | 72911 | inactive |
| Nedd4 | DRSC36367 | -0.157 | 70339 | 72774 | inactive |
| Nedd4 | DRSC38426 | -0.311 | 77731 | 66583 | inactive |
| Cln3 | DRSC10520 | -0.211 | 95074 | 64336 | inactive |
| Cln3 | DRSC27270 | -0.0271 | 84215 | 75970 | inactive |
| Cln3 | DRSC41211 | -0.157 | 66463 | 81899 | inactive |
| Pi3K68D | DRSC28860 | 0.0645 | 91420 | 86325 | inactive |
| Pi3K68D | DRSC32163 | 0.0371 | 66840 | 78031 | inactive |
| Pi3K68D | DRSC32164 | 0.136 | 87457 | 73752 | inactive |
| alc | DRSC23316 | 0.0647 | 80784 | 81916 | inactive |
| alc | DRSC33285 | 0.498 | 73856 | 84609 | inactive |
| alc | DRSC33286 | 0.028 | 82722 | 79275 | inactive |
| Uba5 | DRSC19775 | -0.00994 | 83004 | 80818 | inactive |
| Uba5 | DRSC38214 | -0.297 | 71639 | 79314 | inactive |
| Uba5 | DRSC41174 | 0.0644 | 72345 | 75776 | inactive |
| Glys | DRSC16130 | -0.537 | 75415 | 96364 | inactive |
| Glys | DRSC41198 | -0.115 | 64936 | 72843 | inactive |
| Rab6 | DRSC03404 | -0.887 | 81826 | 60220 | inactive |
| Rab6 | DRSC25636 | -0.136 | 80252 | 68041 | inactive |
| Rab6 | DRSC41237 | -0.288 | 63202 | 70424 | inactive |
| Pde6 | DRSC16401 | 0.017 | 90356 | 73632 | inactive |
| Pde6 | DRSC16402 | 0.125 | 72345 | 84558 | inactive |
| Pde6 | DRSC16403 | -0.101 | 67886 | 69906 | inactive |
| Cand1 | DRSC01992 | 0.774 | 1.13e5 | 85412 | inactive |
| Cand1 | DRSC37484 | -0.526 | 65228 | 65022 | inactive |
| Cand1 | DRSC41192 | -0.13 | 65348 | 70150 | inactive |
| Lst8 | DRSC18262 | 0.285 | 76496 | 1.07e5 | inactive |
| Lst8 | DRSC41178 | -0.198 | 61884 | 75690 | inactive |
| ValRS | DRSC06864 | 0.753 | 1.18e5 | 82086 | inactive |
| ValRS | DRSC33384 | 0.31 | 83734 | 82120 | inactive |
| ValRS | DRSC41146 | 0.401 | 72483 | 87714 | inactive |
| ValRS | DRSC41217 | 0.201 | 75090 | 86599 | inactive |
| slim | DRSC06921 | -0.432 | 65554 | 81745 | inactive |
| slim | DRSC41244 | -0.213 | 65742 | 76975 | inactive |
| slim | DRSC41245 | 0.00133 | 62158 | 78361 | inactive |

Hits, of those listed so far:
| target | DRSC id | averaged z-score | ATP luminescence, replicate 1 | ATP luminescence, replicate 2 | call |
| --- | --- | --- | --- | --- | --- |
| LeuRS | DRSC00581 | 1.54 | 1.36e5 | 81179 | active |
| LeuRS | DRSC32059 | 1.92 | 1.28e5 | 1.02e5 | active |
